# Measurements taken from patent US9545407B2, “Formulations of a bruton's tyrosine kinase inhibitor” (Pharmacyclics LLC, priority 2014, dated 2017).
# At least one structure is not confirmed: it was looked up by name or label, or the drawing left a doubt.
# Tested on: OCILy10
# Assay: induction of apoptosis (caspase activation, Annexin-V flow cytometry, sub-G0 fraction)
# Type: cell-based
# Conditions: increase in sub-G0 fraction
smiles,measurement,value
"C=CC(=O)N1CCC[C@@H](n2nc(-c3ccc(Oc4ccccc4)cc3)c3c(N)ncnc32)C1 [Compound 1, 1-((R)-3-(4-amino-3-(4-phenoxyphenyl)-1H-pyrazolo[3,4-d]pyrimidin-1-yl)piperidin-1-yl)prop-2-en-1-one]",induction of apoptosis,induction of apoptosis
